Consider 22 targets from the supplement of paper PMC10849652.

Protein sequences, listed by entry. Tags and fused reporters are not part of them. Lines headed by an entry give the natural chain unless they say otherwise; changes in a name come on top.
UniProt Q00987, whole entry, looked up: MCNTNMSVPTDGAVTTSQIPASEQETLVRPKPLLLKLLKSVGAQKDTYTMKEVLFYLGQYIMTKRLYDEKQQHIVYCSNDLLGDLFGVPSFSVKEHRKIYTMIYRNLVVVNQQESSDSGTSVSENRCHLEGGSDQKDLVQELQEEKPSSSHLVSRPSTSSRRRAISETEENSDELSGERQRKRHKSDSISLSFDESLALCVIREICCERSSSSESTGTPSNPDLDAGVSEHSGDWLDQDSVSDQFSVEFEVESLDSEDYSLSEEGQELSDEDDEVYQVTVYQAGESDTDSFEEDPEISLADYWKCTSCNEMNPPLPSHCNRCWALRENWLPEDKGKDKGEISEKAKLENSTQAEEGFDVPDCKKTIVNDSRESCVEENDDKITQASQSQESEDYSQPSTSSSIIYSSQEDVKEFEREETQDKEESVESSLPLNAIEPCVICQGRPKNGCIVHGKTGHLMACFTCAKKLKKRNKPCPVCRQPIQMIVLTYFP
UniProt Q8NI22: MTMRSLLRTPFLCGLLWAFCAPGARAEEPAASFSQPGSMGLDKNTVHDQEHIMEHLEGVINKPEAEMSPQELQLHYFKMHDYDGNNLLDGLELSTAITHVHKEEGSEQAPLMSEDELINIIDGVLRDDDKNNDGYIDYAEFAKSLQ
UniProt Q6ZNC8: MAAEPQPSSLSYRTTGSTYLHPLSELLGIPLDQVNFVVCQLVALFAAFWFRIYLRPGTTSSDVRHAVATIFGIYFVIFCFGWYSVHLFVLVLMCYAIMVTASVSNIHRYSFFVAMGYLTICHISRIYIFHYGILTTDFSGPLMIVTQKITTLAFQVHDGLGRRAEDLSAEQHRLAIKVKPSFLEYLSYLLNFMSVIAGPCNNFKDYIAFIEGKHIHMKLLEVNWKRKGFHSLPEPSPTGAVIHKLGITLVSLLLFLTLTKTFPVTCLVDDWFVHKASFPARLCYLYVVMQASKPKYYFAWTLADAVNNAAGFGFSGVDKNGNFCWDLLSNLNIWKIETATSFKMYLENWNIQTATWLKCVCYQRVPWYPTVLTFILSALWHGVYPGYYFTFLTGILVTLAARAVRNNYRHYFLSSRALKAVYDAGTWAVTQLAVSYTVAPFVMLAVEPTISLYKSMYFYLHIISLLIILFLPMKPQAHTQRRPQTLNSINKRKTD
UniProt Q9GZU1, whole entry, looked up: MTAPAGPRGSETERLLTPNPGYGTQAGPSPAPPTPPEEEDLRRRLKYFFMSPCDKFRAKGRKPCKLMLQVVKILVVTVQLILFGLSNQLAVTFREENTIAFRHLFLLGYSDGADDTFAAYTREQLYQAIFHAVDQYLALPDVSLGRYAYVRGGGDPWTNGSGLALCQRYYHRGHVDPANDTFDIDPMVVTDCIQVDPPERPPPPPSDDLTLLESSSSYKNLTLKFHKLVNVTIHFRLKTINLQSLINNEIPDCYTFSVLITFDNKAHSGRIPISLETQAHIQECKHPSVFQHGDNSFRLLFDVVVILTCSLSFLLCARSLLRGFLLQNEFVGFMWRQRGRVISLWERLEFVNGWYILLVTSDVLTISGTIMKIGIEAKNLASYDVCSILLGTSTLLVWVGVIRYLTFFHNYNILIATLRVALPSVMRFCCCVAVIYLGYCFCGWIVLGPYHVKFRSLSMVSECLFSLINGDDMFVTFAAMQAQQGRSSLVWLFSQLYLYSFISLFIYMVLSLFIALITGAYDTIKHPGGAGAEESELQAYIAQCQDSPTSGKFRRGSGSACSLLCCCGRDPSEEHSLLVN
UniProt Q9HCE5: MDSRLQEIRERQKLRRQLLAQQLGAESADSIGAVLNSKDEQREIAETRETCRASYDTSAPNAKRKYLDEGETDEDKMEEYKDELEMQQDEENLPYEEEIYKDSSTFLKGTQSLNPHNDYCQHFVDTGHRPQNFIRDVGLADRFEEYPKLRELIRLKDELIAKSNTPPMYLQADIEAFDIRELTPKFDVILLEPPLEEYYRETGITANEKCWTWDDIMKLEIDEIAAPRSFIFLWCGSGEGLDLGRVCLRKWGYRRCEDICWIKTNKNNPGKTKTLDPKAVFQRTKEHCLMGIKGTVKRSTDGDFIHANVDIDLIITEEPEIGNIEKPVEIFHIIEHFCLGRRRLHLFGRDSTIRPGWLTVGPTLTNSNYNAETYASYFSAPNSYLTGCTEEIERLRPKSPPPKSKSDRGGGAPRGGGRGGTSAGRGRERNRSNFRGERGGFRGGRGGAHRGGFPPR
UniProt Q93074, whole entry, looked up: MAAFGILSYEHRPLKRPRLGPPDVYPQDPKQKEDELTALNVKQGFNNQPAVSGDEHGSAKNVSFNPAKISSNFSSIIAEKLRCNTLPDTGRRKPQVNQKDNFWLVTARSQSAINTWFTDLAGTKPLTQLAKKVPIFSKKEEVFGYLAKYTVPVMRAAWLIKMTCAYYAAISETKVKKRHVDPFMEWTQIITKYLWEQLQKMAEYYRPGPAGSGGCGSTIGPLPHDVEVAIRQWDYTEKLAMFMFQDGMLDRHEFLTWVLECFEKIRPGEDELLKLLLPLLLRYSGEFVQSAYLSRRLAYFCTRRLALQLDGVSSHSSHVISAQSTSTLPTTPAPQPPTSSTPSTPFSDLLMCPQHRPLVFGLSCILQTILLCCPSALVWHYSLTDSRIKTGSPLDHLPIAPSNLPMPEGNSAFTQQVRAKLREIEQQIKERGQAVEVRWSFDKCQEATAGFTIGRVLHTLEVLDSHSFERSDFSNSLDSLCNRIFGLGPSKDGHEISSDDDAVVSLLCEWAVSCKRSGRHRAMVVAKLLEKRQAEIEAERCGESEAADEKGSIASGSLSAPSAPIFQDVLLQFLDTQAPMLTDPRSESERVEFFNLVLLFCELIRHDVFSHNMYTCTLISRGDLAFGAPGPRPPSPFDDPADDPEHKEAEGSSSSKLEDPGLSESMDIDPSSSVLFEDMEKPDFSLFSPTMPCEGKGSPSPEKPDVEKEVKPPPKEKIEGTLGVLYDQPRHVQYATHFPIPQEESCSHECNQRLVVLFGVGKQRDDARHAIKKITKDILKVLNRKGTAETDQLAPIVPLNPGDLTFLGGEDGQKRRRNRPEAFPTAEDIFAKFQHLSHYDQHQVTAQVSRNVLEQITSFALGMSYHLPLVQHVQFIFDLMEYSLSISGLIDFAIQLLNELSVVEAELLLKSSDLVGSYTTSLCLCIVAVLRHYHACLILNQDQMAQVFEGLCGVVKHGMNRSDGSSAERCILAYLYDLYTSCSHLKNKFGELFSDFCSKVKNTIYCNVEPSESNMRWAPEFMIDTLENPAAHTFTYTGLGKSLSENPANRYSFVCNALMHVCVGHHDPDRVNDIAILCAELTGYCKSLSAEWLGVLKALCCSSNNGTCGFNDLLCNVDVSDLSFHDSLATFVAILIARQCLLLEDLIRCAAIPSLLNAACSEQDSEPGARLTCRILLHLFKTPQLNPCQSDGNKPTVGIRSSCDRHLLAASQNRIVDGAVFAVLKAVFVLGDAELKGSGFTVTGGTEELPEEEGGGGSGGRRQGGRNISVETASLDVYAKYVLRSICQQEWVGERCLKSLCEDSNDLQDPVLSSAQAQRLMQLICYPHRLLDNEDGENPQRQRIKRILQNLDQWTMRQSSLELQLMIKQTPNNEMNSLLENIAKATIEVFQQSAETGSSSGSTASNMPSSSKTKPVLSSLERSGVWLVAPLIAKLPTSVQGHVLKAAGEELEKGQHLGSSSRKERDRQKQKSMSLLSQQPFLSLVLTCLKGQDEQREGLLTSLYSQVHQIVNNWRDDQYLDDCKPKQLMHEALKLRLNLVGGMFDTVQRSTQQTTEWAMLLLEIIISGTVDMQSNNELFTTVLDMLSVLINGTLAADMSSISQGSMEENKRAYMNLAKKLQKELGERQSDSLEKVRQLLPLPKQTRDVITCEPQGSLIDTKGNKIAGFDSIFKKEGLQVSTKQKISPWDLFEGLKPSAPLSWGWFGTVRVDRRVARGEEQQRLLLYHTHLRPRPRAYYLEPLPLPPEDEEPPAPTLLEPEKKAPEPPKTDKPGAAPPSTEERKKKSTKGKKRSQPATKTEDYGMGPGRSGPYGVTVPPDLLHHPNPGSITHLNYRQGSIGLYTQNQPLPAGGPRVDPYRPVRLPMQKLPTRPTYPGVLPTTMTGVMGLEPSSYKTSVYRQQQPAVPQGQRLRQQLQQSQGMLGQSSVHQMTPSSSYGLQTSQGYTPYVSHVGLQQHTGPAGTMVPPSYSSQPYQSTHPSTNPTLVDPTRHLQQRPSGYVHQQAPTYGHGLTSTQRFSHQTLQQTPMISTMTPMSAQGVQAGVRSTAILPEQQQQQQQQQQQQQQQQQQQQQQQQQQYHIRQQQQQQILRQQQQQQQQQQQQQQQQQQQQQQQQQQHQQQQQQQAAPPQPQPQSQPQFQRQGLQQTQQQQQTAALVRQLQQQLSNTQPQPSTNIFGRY
UniProt O60244: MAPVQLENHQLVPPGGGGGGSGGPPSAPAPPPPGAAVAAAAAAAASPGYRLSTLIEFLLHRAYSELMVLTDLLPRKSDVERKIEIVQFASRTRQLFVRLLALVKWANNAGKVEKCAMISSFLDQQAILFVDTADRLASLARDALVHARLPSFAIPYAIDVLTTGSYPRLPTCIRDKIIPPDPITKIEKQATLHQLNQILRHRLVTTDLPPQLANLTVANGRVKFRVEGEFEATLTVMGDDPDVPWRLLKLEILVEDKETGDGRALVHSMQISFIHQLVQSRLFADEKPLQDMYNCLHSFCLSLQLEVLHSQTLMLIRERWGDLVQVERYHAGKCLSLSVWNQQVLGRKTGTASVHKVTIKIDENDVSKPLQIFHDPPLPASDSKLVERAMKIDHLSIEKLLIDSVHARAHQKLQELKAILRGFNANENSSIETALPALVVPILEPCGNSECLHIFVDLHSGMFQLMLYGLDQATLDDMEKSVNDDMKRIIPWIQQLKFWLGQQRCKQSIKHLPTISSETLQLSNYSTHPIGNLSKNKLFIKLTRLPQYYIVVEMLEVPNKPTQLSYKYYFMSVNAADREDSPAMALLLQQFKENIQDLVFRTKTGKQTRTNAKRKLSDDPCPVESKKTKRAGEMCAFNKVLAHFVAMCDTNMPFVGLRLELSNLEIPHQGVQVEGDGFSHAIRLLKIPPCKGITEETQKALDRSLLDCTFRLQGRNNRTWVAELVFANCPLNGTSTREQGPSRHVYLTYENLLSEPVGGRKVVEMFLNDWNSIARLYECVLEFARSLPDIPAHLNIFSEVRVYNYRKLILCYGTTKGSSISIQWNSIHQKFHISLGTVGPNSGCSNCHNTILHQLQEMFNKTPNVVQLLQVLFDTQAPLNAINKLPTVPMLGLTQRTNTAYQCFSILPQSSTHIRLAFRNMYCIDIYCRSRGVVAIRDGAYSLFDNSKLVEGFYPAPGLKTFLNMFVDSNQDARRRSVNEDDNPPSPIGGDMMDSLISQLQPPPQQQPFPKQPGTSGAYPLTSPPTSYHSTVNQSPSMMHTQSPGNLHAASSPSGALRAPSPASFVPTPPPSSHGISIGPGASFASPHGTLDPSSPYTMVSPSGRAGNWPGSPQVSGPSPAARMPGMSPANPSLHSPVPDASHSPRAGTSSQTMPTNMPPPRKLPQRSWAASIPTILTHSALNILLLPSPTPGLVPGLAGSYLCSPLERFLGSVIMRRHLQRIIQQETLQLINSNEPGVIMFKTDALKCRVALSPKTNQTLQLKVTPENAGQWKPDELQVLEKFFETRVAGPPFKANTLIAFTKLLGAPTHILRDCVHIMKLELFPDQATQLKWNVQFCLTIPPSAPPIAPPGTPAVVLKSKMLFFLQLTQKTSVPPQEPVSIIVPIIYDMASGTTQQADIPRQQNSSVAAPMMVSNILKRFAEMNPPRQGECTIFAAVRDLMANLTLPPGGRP
UniProt Q02078: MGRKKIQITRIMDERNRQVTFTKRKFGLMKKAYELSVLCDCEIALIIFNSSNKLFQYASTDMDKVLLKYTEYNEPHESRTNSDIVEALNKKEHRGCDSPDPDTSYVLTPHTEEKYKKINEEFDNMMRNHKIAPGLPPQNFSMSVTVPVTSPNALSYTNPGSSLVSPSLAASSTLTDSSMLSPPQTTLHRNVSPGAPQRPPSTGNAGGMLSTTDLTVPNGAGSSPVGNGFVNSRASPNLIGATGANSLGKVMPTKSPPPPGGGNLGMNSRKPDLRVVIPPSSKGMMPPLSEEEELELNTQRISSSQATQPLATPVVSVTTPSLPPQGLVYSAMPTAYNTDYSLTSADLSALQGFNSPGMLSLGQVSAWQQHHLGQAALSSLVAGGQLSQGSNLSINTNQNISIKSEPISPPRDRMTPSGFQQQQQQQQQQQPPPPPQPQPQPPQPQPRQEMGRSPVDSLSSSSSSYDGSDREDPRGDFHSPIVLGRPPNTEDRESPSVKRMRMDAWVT
UniProt Q15528: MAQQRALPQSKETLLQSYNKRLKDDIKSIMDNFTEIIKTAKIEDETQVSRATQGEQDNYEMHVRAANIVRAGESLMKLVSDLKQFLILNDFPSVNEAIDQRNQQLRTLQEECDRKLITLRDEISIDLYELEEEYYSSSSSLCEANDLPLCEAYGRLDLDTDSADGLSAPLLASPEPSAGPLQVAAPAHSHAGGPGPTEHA

The other results are listed elsewhere or left out.

Compound in the assay: C1=CC=C2C(=C1)C3=NNC4=CC=CC(=C43)C2=O
In words: log2 fold change, soluble protein after heating vs DMSO (PISA); higher = thermal stabilisation; K562 lysate, 10 uM; active = over 0.2 and 3.5 SD of the protein, either way, in both replicates (recomputed). In outline: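 Soluble protein was defined as the supernatant remaining after 21,000xg for 90 min, following pooling of heated aliquots and adjustment to 0.5% NP-40 at 4°C. Before that, crude K562 extract at 1 mg/mL protein in PBS pH 7.4 with 1 mM MgCl2 was treated with 10 μM compound for 30 min and heated for 3 min across 48°C-58°C. Quantification used TMTpro 16plex LC-MS/MS with channel sums equalised, and values are log-two fold changes in thermal stability relative to solvent controls from duplicates.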
For the target METTL7A (UniProt Q9H8H3), the log2 fold change was inactive: -0.016.

Consider MCM10 (UniProt Q7L590), for which the log2 fold change was inactive: 0.018.

With MDM2 isoform 11 (UniProt Q00987), the log2 fold change was inactive: 0.04.

Take MCFD2 (UniProt Q8NI22): the log2 fold change was inactive: -0.088.

Consider MCM5 (UniProt P33992), for which the log2 fold change is inactive: 0.047.

In the case of MBOAT1 (UniProt Q6ZNC8), the log2 fold change is inactive: -0.313.

On to MED13L (UniProt Q71F56), for which the log2 fold change was inactive: -0.035.

Regarding MCOLN1 (UniProt Q9GZU1), the log2 fold change was inactive: 0.037.

For the target MBLAC1 (UniProt A4D2B0), the log2 fold change is inactive: -0.273.

With METTL14 (UniProt Q9HCE5), the log2 fold change is inactive: -0.005.

On to MELK (UniProt Q14680), for which the log2 fold change was inactive: 0.022.

MED12 isoform 2 (UniProt Q93074): the log2 fold change is inactive: -0.025.

Consider METTL16 (UniProt Q86W50), for which the log2 fold change was inactive: -0.008.

Turning to MFSD8 (UniProt Q8NHS3), the log2 fold change is inactive: -0.056.

As for METTL5 (UniProt Q9NRN9), the log2 fold change is inactive: 0.045.

As for MED20 (UniProt Q9H944), the log2 fold change is inactive: 0.036.

For MCM3AP (UniProt O60318), the log2 fold change is inactive: 0.2.

For MED14 (UniProt O60244), the log2 fold change is inactive: -0.066.

Turning to MEF2A isoform 2 (UniProt Q02078), the log2 fold change was inactive: -0.168.

In the case of MED22 isoform 2 (UniProt Q15528), the log2 fold change is inactive: 0.005.

As to MFHAS1 (UniProt Q9Y4C4), the log2 fold change is inactive: -0.077.

For the target MFSD12 isoform 3 (UniProt Q6NUT3), the log2 fold change is inactive: 0.001.
